Data: publication PMC3493068
Results are given in words; binding and its absence hold for the method and conditions named. In cells and extracts the contact can be indirect. Binding can be weak; no strength is given. Tags and fused reporters may be left off the sequences shown.

What was measured:
Test in all cases: co-IP; COS-7 cells co-transfected with FLAG-MG53 and c-myc-dysferlin constructs, lysed 48 h later in 20 mM Tris-HCl pH 7.5, 150 mM NaCl, 1% NP-40 without CaCl2 and EGTA; IP with anti-FLAG (M2) or anti-c-myc (9E10), immunoblot
[1] = target: T1, FLAG-tagged full-length human MG53 (human) (UniProt Q6ZMU5)
T1 sequence: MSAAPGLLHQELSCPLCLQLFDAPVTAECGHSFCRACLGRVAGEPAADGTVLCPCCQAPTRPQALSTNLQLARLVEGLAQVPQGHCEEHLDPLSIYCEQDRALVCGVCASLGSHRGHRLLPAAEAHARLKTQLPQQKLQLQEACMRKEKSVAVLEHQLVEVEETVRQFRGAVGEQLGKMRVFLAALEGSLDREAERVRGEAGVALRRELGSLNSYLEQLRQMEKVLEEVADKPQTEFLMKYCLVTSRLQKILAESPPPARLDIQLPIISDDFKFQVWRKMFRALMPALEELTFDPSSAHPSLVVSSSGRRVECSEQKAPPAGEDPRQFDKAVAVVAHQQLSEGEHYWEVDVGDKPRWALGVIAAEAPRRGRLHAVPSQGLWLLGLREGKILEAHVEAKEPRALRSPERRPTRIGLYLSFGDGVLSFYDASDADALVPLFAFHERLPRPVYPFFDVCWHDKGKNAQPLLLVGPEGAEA

[2] = target: c-myc-tagged human dysferlin deletion mutant aa 1-1080 (transmembrane domain retained) (human)
[3] = target: c-myc-tagged human dysferlin deletion mutant aa 1-149 (transmembrane domain retained) (human)
[4] = target: c-myc-tagged human dysferlin deletion mutant aa 1-349 (transmembrane domain retained) (human)

Row | binding [1] | binding [2] | binding [3] | binding [4] | Molecule
1 | binds | – | – | – | c-myc-tagged human dysferlin deletion mutant aa 1-149 (transmembrane domain retained) (domain or fragment)
2 | binds | – | – | – | c-myc-tagged human dysferlin deletion mutant aa 1-349 (transmembrane domain retained) (domain or fragment)
3 | binds | – | – | – | c-myc-tagged human dysferlin deletion mutant aa 1-1080 (transmembrane domain retained) (domain or fragment)
4 | – | binds | binds | binds | FLAG-tagged full-length human MG53 (protein, UniProt Q6ZMU5 1-477) MSAAPGLLHQELSCPLCLQLFDAPVTAECGHSFCRACLGRVAGEPAADGTVLCPCCQAPTRPQALSTNLQLARLVEGLAQVPQGHCEEHLDPLSIYCEQDRALVCGVCASLGSHRGHRLLPAAEAHARLKTQLPQQKLQLQEACMRKEKSVAVLEHQLVEVEETVRQFRGAVGEQLGKMRVFLAALEGSLDREAERVRGEAGVALRRELGSLNSYLEQLRQMEKVLEEVADKPQTEFLMKYCLVTSRLQKILAESPPPARLDIQLPIISDDFKFQVWRKMFRALMPALEELTFDPSSAHPSLVVSSSGRRVECSEQKAPPAGEDPRQFDKAVAVVAHQQLSEGEHYWEVDVGDKPRWALGVIAAEAPRRGRLHAVPSQGLWLLGLREGKILEAHVEAKEPRALRSPERRPTRIGLYLSFGDGVLSFYDASDADALVPLFAFHERLPRPVYPFFDVCWHDKGKNAQPLLLVGPEGAEA
